PubChem BioAssay AID1259405, NCATS, 2018
Assay: 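Knock-downs that lift recombinant protein yield in hamster ovary cells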 (primary screen). Cells: Chinese hamster CHO-K1 ovary cells with stable secreted eGFP expression. Knock-down reagent: single siRNA against mouse genes, 0.8 pmol siRNA per well (2 µl of 400 nM stock). Time to read-out: 3 days. Read-out: 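Per-well intracellular GFP measured by laser scanning cytometry, plus viability from ATP luminescence, each relative to plate median of non-targeting control wells, in %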. Scale: GFP, % of control: higher = more GFP per well, higher productivity; viability (ATP), % of control: higher = more viable cells (more ATP). Active means: 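a knock-down is called active if GFP reaches 120% or more of non-targeting control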.
Here is an unselected part of about 50,000 reagents tested. In the full data, about 4,000 (8%) got an active call. 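Mouse siRNA library applied to hamster cells; one well for each siRNA.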 Reagents against one gene are numbered here.

| Gene | reagent no. | GFP, % of control | viability (ATP), % of control | Outcome |
| --- | --- | --- | --- | --- |
| Gpatch4 (G patch domain containing 4) | 1 | 82.1 | 95.5 | inactive |
| Gpatch4 (G patch domain containing 4) | 2 | 80.4 | 86.5 | inactive |
| Gpatch4 (G patch domain containing 4) | 3 | 118 | 121 | inactive |
| 1810065E05Rik (RIKEN cDNA 1810065E05 gene) | 1 | 102 | 78.6 | inactive |
| 1810065E05Rik (RIKEN cDNA 1810065E05 gene) | 2 | 115 | 90.5 | inactive |
| 1810065E05Rik (RIKEN cDNA 1810065E05 gene) | 3 | 61.7 | 63.1 | inactive |
| Polr2b (polymerase (RNA) II (DNA directed) polypeptide B) | 1 | 121 | 60.4 | active |
| Polr2b (polymerase (RNA) II (DNA directed) polypeptide B) | 2 | 100 | 68.6 | inactive |
| 9430097D07Rik (RIKEN cDNA 9430097D07 gene) | 1 | 73.9 | 73.2 | inactive |
| 9430097D07Rik (RIKEN cDNA 9430097D07 gene) | 2 | 92.6 | 61.3 | inactive |
| 9430097D07Rik (RIKEN cDNA 9430097D07 gene) | 3 | 50.6 | 66 | inactive |
| Cd3d (CD3 antigen, delta polypeptide) | 1 | 101 | 81.8 | inactive |
| Cd3d (CD3 antigen, delta polypeptide) | 2 | 67.6 | 62.1 | inactive |
| Cd3d (CD3 antigen, delta polypeptide) | 3 | 83 | 64.4 | inactive |
| Brcc3 (BRCA1/BRCA2-containing complex, subunit 3) | 1 | 105 | 104 | inactive |
| Brcc3 (BRCA1/BRCA2-containing complex, subunit 3) | 2 | 55.4 | 55 | inactive |
| Brcc3 (BRCA1/BRCA2-containing complex, subunit 3) | 3 | 80.3 | 109 | inactive |
| Atg4b (autophagy related 4B, cysteine peptidase) | 1 | 105 | 92.1 | inactive |
| Atg4b (autophagy related 4B, cysteine peptidase) | 2 | 98.2 | 73.2 | inactive |
| Ostc (oligosaccharyltransferase complex subunit (non-catalytic)) | 1 | 90.8 | 45.7 | inactive |
| Ostc (oligosaccharyltransferase complex subunit (non-catalytic)) | 2 | 80.4 | 48.1 | inactive |
| Ostc (oligosaccharyltransferase complex subunit (non-catalytic)) | 3 | 71.9 | 68.5 | inactive |
| Ccdc59 (coiled-coil domain containing 59) | 1 | 89.7 | 102 | inactive |
| Ccdc59 (coiled-coil domain containing 59) | 2 | 101 | 63.9 | inactive |
| Ccdc59 (coiled-coil domain containing 59) | 3 | 118 | 87.5 | inactive |
| Bet1 (Bet1 golgi vesicular membrane trafficking protein) | 1 | 91.8 | 92.4 | inactive |
| Bet1 (Bet1 golgi vesicular membrane trafficking protein) | 2 | 84.1 | 77.7 | inactive |
| Inmt (indolethylamine N-methyltransferase) | 1 | 63.6 | 94.7 | inactive |
| Inmt (indolethylamine N-methyltransferase) | 2 | 80.2 | 83.1 | inactive |
| Inmt (indolethylamine N-methyltransferase) | 3 | 91.4 | 85.4 | inactive |
| Cry2 (cryptochrome circadian regulator 2) | 1 | 91.6 | 63.4 | inactive |
| Cry2 (cryptochrome circadian regulator 2) | 2 | 66.9 | 70.8 | inactive |
| Cry2 (cryptochrome circadian regulator 2) | 3 | 65 | 85.2 | inactive |
| Ociad1 (OCIA domain containing 1) | 1 | 121 | 103 | active |
| Ociad1 (OCIA domain containing 1) | 2 | 76.1 | 87.7 | inactive |
| Ociad1 (OCIA domain containing 1) | 3 | 62.6 | 115 | inactive |
| Apobec2 | 1 | 99.8 | 104 | inactive |
| Apobec2 | 2 | 81.4 | 111 | inactive |
| Apobec2 | 3 | 182 | 84.7 | active |

Hits (from the list above):
| Gene | reagent no. | GFP, % of control | viability (ATP), % of control | Outcome |
| --- | --- | --- | --- | --- |
| Polr2b (polymerase (RNA) II (DNA directed) polypeptide B) | 1 | 121 | 60.4 | active |
| Ociad1 (OCIA domain containing 1) | 1 | 121 | 103 | active |
| Apobec2 | 3 | 182 | 84.7 | active |

Additional entries follow:
| Gene | reagent no. | GFP, % of control | viability (ATP), % of control | Outcome |
| --- | --- | --- | --- | --- |
| Kctd11 (potassium channel tetramerisation domain containing 11) | 1 | 57.9 | 54.5 | inactive |
| Kctd11 (potassium channel tetramerisation domain containing 11) | 2 | 94.3 | 70.8 | inactive |
| Kctd11 (potassium channel tetramerisation domain containing 11) | 3 | 65 | 61.6 | inactive |
| Cfap418 (cilia and flagella associated protein 418) | 1 | 69.5 | 92.8 | inactive |
| Cfap418 (cilia and flagella associated protein 418) | 2 | 95 | 96.1 | inactive |
| Cfap418 (cilia and flagella associated protein 418) | 3 | 56.5 | 69.5 | inactive |
| Klk1b8 (kallikrein 1-related peptidase b8) | 1 | 73.3 | 86.7 | inactive |
| Klk1b8 (kallikrein 1-related peptidase b8) | 2 | 75.8 | 55.9 | inactive |
| Klk1b8 (kallikrein 1-related peptidase b8) | 3 | 76.2 | 89.5 | inactive |
| Tjp2 (tight junction protein 2) | 1 | 26.7 | 26.7 | inactive |
| Tjp2 (tight junction protein 2) | 2 | 101 | 90.4 | inactive |
| Tjp2 (tight junction protein 2) | 3 | 78.4 | 128 | inactive |
| Inpp4b (inositol polyphosphate-4-phosphatase, type II) | 1 | 51.5 | 76 | inactive |
| Inpp4b (inositol polyphosphate-4-phosphatase, type II) | 2 | 74.2 | 46 | inactive |
| Mpzl2 (myelin protein zero-like 2) | 1 | 60.6 | 71.6 | inactive |
| Mpzl2 (myelin protein zero-like 2) | 2 | 101 | 80.8 | inactive |
| Or10g7 (olfactory receptor family 10 subfamily G member 7) | 1 | 68 | 54.7 | inactive |
| Or10g7 (olfactory receptor family 10 subfamily G member 7) | 2 | 76.2 | 62.5 | inactive |
| Or10g7 (olfactory receptor family 10 subfamily G member 7) | 3 | 49 | 63.4 | inactive |
| Fth1 (ferritin heavy polypeptide 1) | 1 | 77.6 | 87.6 | inactive |
| Fth1 (ferritin heavy polypeptide 1) | 2 | 117 | 115 | inactive |
| Fth1 (ferritin heavy polypeptide 1) | 3 | 117 | 73.8 | inactive |
| Dynlt3 (dynein light chain Tctex-type 3) | 1 | 54.5 | 67.1 | inactive |
| Dynlt3 (dynein light chain Tctex-type 3) | 2 | 52.5 | 57.8 | inactive |
| Dynlt3 (dynein light chain Tctex-type 3) | 3 | 87.2 | 88.5 | inactive |
| Entpd5 (ectonucleoside triphosphate diphosphohydrolase 5) | 1 | 107 | 97.9 | inactive |
| Entpd5 (ectonucleoside triphosphate diphosphohydrolase 5) | 2 | 53.6 | 54.9 | inactive |
| Entpd5 (ectonucleoside triphosphate diphosphohydrolase 5) | 3 | 108 | 83.8 | inactive |
| Myo3b (myosin IIIB) | 1 | 45.5 | 54.4 | inactive |
| Myo3b (myosin IIIB) | 2 | 67.7 | 74 | inactive |
| Myo3b (myosin IIIB) | 3 | 77.4 | 79.3 | inactive |
| Or5b97 (olfactory receptor family 5 subfamily B member 97) | 1 | 145 | 73.2 | active |
| Or5b97 (olfactory receptor family 5 subfamily B member 97) | 2 | 74.6 | 78.8 | inactive |
| Or5b97 (olfactory receptor family 5 subfamily B member 97) | 3 | 26.8 | 22.3 | inactive |
| Lrrc14 (leucine rich repeat containing 14) | 1 | 97 | 102 | inactive |
| Lrrc14 (leucine rich repeat containing 14) | 2 | 71.5 | 85.3 | inactive |
| Lrrc14 (leucine rich repeat containing 14) | 3 | 75.6 | 83 | inactive |
| Ccdc150 (coiled-coil domain containing 150) | 1 | 77.4 | 74.1 | inactive |
| Ccdc150 (coiled-coil domain containing 150) | 2 | 60.3 | 39.5 | inactive |
| Ccdc150 (coiled-coil domain containing 150) | 3 | 89.8 | 68.9 | inactive |
| Zfp280b (zinc finger protein 280B) | 1 | 133 | 123 | active |
| Zfp280b (zinc finger protein 280B) | 2 | 79.6 | 70.4 | inactive |
| Zfp280b (zinc finger protein 280B) | 3 | 69.3 | 60.8 | inactive |
| Tbc1d22b (TBC1 domain family, member 22B) | 1 | 52.6 | 75.1 | inactive |
| Tbc1d22b (TBC1 domain family, member 22B) | 2 | 71.1 | 75.3 | inactive |
| Tbc1d22b (TBC1 domain family, member 22B) | 3 | 108 | 59.2 | inactive |
